# Entries after “also recorded” stand apart in the source; their conditions may differ. At least one compound was matched to its structure with a doubt left.
# Columns and labels:
# HOK-16B cells [1] = experiment: Intracellular ROS generation (DCFH-DA fluorescence) after STE exposure; type: cell-based, human; conditions: TROLOX 20 µmol/L, L-ascorbic acid 50 µmol/L or deferoxamine 50 µmol/L, 30 min prior to STE addition; FIG. 1C
# Method: Extracts of smokeless tobacco were prepared in cell growth medium as follows. One gram of reference smokeless tobacco was mixed with 10 ml of cell growth medium and placed on a shaker at 300 rpm and allowed to mix for 2 hours at 37° C. It was then centrifuged at 125 g for 10 minites at 4° C. The extracted supernatant was collected and centrifuged at 14,000 g for 1 hour at 4° C. The supernatant was filtered using a 0.22 µm filter, divided into aliquots, and immediately stored at -80° C. The extracted supernatant yielded a 100 mg/ml smokeless tobacco extract (STE) solution, which was serially diluted to obtain the doses of STE (1-100 mg/ml) used. […]
# The intracellular generation of reactive oxygen species (ROS) was measured by using membrane permeable oxidation-sensitive fluorescent dye DCFH-DA. […] Fluorescence measurements were obtained 0 to 3 hours after STE addition, at the indicated concentrations, with a plate reader. Thirty minutes before the measurement of ROS in the plate reader, cells were incubated with DCFH-DA (25 µmol/L) or DMSO vehicle. The medium was then rapidly removed, the cells were washed in ice-cold phosphate-buffered saline and replaced with medium lacking dye, and the plate was placed into the plate reader. Data at each time point are presented corrected for basal fluorescence of vehicle-treated cells at the same time point. […]
# HOK-16B cells [2] = experiment: Morphologic assessment of necrotic/apoptotic cell death (Hema 3 staining); type: cell-based, human; conditions: TROLOX 20 µmol/L, L-ascorbic acid 50 µmol/L or deferoxamine 50 µmol/L, 30 min prior to STE; FIG. 1D
# Method: Extracts of smokeless tobacco were prepared in cell growth medium as follows. One gram of reference smokeless tobacco was mixed with 10 ml of cell growth medium and placed on a shaker at 300 rpm and allowed to mix for 2 hours at 37° C. It was then centrifuged at 125 g for 10 minites at 4° C. The extracted supernatant was collected and centrifuged at 14,000 g for 1 hour at 4° C. The supernatant was filtered using a 0.22 µm filter, divided into aliquots, and immediately stored at -80° C. The extracted supernatant yielded a 100 mg/ml smokeless tobacco extract (STE) solution, which was serially diluted to obtain the doses of STE (1-100 mg/ml) used.
# The primary HOK cells, isolated from human oral mucosa, were plated on poly-L-lysine coated plates at a density of 5 × 10^5 cells/well in a 12-well plate and cultured in keratinocyte medium at 37° C. in a humidified atmosphere containing 5% CO2 (v/v). HOK-16B cells were plated at a density of 5 × 10^5 cells/well in a 12-well plate and cultured in keratinocyte growth medium supplemented with 0.1 ng/ml epidermal growth factor, 5 µg/ml insulin, 30 µg/mlgentamicin, and 50 µg/mlamphoterecin at 37° C. in a humidified atmosphere containing 5% CO2 (v/v). […]
# Morphologic assessment of viable cells and apoptotic and necrotic cell death was performed as follows. […] Nuclear and total cellular morphology were evaluated. […]
smiles,measurement,setting,value
CC(=O)N(O)CCCCCNC(=O)CCC(=O)N(O)CCCCCNC(=O)CCC(=O)N(O)CCCCCN [deferoxamine],production of ROS induced by STE,HOK-16B cells [1],completely suppressed
same,protection from STE-induced cell death,HOK-16B cells [2],can protect against cell death; also recorded: greater protection than the antioxidants

# Source: patent US11766068B1, “Method of treating smokeless tobacco” (Altria Client Services LLC, priority 2009, dated 2023)
